Reference: article PMC3145769
These are yes or no findings as the source states them, for the method shown. In cells and extracts the contact can be indirect.

Amino acid sequences for entries named in this document (tags omitted). A change or cut given only in a name is not applied to a line headed by its entry.
UniProt P51943: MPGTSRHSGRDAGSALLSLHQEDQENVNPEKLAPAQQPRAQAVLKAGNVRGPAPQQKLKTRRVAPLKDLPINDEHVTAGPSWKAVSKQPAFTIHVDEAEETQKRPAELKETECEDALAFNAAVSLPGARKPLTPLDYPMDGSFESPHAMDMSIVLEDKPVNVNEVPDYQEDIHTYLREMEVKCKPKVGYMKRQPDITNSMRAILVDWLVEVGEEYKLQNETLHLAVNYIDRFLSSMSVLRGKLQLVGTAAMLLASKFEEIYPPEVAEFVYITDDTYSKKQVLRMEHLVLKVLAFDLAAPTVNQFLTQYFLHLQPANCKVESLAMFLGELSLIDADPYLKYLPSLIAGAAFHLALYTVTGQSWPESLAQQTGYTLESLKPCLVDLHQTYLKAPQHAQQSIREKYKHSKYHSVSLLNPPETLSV
UniProt P11440: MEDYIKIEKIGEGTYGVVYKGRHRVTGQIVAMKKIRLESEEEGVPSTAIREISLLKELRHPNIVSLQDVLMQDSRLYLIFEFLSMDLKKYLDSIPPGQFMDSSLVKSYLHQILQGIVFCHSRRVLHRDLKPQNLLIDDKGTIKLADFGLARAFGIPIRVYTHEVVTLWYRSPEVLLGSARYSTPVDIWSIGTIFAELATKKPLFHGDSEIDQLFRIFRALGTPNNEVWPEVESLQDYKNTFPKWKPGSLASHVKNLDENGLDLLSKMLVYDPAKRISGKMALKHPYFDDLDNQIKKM
UniProt P46414: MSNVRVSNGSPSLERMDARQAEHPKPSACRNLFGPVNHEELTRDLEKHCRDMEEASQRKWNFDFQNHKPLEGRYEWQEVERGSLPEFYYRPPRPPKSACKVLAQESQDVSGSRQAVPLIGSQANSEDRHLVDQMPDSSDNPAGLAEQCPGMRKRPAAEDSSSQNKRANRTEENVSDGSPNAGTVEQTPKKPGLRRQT
UniProt P38936: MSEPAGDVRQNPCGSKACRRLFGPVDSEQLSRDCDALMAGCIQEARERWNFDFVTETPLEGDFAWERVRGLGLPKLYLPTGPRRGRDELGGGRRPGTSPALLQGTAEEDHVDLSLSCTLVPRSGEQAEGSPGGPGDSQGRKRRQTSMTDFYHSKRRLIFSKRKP

What was measured:
[1] = biological target: Cyclin A2 E180A, C-terminally fused to 3 Flag tags (mouse) (UniProt P51943); test: co-IP; anti-Flag M2 affinity gel on extracts of NIH3T3 cells transfected with 3xFlag Cyclin A2 alleles; endogenous partners detected by Western blot; densitometry (ImageQuantTL) normalised to immunoprecipitated Cyclin A2, percent of WT; repeated 5 times
[2] = biological target: Cyclin A2 Triple (M200A, L204A, W207A), C-terminally fused to 3 Flag tags (mouse) (UniProt P51943); test: as above
[3] = biological target: Cyclin A2 Triple (M200A, L204A, W207A), C-terminally fused to 3 Flag tags (mouse) (UniProt P51943); test: co-IP; anti-Flag M2 affinity gel on extracts of human HEK 293 cells transfected with mouse 3xFlag Cyclin A2 alleles; endogenous partners detected by Western blot; densitometry (ImageQuantTL) normalised to immunoprecipitated Cyclin A2, percent of WT; repeated 3 times

| Substance | binding [1] | binding [2] | binding [3] |
| --- | --- | --- | --- |
| CDK1 (endogenous, NIH3T3) (from UniProt P11440 1-297) (enzyme) | no binding | no binding | – |
| p27 (endogenous, NIH3T3) (from UniProt P46414 1-197) | no binding | no binding | – |
| p21 (endogenous, HEK 293) (from UniProt P38936 1-164) | – | – | no binding |
